According to article PMC7876134:
Results are given in words; binding and its absence hold for the method and conditions named. In cells and extracts the contact can be indirect. Here binding means that the protein was enriched with, or labelled near, the bait; the list need not be complete. Tags and fused reporters may be left off the sequences shown. Each block holds one molecule with its values, some of them ahead of it.

Sequences of proteins named here, by UniProt entry; tags and fusion partners are left off.
UniProt P21333: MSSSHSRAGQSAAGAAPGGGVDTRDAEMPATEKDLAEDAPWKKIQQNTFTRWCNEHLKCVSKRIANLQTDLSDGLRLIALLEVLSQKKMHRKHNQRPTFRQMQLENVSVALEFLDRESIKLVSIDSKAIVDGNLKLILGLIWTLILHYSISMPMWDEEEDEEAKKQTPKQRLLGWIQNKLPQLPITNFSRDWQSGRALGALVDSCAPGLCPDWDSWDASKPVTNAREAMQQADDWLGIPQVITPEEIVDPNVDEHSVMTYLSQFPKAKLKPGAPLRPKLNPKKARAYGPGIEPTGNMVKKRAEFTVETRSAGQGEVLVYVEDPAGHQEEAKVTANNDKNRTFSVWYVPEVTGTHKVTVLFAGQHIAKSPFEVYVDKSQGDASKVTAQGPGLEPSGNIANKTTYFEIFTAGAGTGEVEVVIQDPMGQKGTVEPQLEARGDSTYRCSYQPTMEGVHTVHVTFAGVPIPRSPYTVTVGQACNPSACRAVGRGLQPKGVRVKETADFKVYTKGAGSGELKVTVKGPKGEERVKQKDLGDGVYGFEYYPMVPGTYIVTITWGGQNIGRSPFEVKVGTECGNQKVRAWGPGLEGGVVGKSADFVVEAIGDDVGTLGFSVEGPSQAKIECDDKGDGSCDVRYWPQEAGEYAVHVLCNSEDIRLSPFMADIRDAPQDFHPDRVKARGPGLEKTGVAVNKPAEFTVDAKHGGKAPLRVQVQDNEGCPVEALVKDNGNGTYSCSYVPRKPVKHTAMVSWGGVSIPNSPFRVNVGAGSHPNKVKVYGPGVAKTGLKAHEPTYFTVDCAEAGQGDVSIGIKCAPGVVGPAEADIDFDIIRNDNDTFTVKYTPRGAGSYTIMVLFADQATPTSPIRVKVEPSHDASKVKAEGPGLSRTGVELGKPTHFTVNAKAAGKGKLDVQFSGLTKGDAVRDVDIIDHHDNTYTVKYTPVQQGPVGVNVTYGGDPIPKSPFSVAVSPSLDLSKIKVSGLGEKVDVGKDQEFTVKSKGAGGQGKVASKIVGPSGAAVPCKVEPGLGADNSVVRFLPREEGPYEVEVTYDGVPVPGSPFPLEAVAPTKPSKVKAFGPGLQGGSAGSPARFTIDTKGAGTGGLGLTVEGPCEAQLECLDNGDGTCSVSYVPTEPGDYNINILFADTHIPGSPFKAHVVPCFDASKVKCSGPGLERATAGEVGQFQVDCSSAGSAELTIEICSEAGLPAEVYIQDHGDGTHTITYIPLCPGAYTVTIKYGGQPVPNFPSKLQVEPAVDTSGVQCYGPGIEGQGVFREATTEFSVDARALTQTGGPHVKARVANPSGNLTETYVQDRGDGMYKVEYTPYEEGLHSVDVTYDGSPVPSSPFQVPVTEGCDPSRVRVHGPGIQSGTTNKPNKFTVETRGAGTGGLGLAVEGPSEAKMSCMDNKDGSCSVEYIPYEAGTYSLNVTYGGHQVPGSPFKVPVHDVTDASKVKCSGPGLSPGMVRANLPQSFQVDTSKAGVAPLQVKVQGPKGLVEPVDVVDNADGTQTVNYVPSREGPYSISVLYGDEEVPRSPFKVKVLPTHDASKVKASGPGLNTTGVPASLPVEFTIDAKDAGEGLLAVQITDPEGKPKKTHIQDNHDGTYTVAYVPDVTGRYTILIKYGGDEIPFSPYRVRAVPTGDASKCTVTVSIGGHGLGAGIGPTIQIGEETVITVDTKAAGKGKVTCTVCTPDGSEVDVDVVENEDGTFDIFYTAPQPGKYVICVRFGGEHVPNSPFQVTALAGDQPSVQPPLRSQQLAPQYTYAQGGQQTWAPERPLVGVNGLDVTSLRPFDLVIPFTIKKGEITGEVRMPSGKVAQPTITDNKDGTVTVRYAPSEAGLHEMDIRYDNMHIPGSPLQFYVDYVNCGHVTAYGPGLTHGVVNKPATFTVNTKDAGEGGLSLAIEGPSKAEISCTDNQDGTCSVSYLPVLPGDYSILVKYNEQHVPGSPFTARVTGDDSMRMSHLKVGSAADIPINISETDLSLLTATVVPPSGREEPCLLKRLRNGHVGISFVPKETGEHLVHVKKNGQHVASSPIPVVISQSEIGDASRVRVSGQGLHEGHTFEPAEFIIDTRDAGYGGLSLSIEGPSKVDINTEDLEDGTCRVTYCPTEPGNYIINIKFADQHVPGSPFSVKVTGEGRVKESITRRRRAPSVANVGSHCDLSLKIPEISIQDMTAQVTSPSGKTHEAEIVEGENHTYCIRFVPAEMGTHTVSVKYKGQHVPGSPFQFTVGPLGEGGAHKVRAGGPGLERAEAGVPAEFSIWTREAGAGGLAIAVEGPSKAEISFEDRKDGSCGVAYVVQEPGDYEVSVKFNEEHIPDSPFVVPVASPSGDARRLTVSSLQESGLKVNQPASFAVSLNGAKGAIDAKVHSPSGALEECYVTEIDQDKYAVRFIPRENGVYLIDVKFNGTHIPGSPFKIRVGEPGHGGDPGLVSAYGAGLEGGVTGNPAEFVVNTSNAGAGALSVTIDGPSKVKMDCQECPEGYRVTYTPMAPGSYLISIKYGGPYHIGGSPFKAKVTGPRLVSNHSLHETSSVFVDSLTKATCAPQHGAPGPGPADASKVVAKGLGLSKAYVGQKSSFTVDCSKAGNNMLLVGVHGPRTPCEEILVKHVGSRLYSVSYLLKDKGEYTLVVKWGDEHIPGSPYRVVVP
UniProt P30613: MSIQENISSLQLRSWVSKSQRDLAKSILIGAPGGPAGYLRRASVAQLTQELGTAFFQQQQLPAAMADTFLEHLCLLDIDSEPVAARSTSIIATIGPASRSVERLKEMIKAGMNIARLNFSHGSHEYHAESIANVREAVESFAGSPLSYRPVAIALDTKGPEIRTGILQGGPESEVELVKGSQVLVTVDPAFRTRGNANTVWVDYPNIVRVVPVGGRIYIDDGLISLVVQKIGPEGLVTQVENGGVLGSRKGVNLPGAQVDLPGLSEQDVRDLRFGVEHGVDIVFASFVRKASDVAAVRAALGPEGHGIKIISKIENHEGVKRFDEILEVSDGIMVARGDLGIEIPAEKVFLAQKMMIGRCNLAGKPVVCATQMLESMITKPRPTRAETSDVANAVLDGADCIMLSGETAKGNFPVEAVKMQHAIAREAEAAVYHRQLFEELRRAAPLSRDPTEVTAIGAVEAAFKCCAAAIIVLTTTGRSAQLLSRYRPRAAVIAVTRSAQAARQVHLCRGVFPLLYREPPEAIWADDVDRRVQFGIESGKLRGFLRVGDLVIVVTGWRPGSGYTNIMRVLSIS
UniProt Q14258: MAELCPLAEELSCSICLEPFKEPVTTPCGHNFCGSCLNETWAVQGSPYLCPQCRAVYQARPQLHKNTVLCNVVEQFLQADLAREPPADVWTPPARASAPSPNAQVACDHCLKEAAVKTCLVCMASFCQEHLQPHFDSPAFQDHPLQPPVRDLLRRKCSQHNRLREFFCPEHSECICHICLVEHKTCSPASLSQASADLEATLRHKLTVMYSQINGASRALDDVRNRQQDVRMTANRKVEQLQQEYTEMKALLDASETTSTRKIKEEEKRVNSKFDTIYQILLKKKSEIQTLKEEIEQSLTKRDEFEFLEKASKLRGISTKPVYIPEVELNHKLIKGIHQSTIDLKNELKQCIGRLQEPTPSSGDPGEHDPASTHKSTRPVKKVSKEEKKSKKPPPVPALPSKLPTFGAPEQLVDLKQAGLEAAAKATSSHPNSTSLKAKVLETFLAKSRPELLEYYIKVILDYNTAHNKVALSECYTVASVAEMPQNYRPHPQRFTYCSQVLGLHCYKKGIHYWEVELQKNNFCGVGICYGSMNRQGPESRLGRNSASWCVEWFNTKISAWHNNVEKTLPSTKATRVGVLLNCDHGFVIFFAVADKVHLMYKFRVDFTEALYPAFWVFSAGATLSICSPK
UniProt P31946: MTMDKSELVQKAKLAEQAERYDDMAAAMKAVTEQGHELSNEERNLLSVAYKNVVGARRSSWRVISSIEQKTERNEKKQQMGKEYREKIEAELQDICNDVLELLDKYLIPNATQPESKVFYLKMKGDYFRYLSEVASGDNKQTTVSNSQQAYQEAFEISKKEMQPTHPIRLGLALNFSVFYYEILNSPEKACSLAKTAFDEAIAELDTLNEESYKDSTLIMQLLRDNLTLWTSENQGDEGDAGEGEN
UniProt P62258: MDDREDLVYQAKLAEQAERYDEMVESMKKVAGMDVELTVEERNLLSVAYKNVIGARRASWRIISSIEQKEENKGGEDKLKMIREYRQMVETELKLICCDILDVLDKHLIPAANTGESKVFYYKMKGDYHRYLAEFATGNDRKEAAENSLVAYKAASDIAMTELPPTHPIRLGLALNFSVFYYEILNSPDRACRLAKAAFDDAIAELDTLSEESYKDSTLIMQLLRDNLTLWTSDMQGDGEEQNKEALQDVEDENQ

Target: T1, 3 × FLAG-labeled lanthionine synthetase C-like protein 2 (LANCL2) (UniProt Q9NS86)
T1 sequence: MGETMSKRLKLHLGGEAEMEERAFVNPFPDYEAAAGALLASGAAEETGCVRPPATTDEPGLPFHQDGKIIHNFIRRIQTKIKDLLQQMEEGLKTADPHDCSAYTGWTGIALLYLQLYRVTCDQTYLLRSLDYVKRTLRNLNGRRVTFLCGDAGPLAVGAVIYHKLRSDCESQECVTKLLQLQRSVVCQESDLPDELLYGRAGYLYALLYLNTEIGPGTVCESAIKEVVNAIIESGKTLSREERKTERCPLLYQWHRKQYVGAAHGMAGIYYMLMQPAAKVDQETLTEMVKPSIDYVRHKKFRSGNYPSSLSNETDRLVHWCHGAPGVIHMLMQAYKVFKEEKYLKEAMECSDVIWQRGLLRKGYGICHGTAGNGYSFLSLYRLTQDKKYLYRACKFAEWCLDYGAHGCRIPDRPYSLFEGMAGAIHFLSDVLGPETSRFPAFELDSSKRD
Experiment: affinity purification with mass spectrometry; 3xFLAG-LANCL2 captured from infected PC9 cells on anti-FLAG M2 beads; proteins resolved on 10% SDS-PAGE, Coomassie stained, trypsin digested, nano-LC-MS/MS (LTQ Velos-Orbitrap); negative control GV491 lentivirus

binding: binds
Molecule: Filamin A (FLNA) (from UniProt P21333 1-2647)

binding: binds
Molecule: PKLR (from UniProt P30613 1-574)

binding: binds
Molecule: TRIM25 (from UniProt Q14258 1-630)

binding: binds
Molecule: YWHAB (from UniProt P31946 1-246)

binding: binds
Molecule: YWHAE (from UniProt P62258 1-255)

binding: binds
B1: glutathione S-transferase Mu 3 (GSTM3) (protein, UniProt P21266 1-225)
chain: MSCESSMVLGYWDIRGLAHAIRLLLEFTDTSYEEKRYTCGEAPDYDRSQWLDVKFKLDLDFPNLPYLLDGKNKITQSNAILRYIARKHNMCGETEEEKIRVDIIENQVMDFRTQLIRLCYSSDHEKLKPQYLEELPGQLKQFSMFLGKFSWFAGEKLTFVDFLTYDILDQNRIFDPKCLDEFPNLKAFMCRFEALEKIAAYLQSDQFCKMPINNKMAQWGNKPVC
